We go through 29 molecules from PubChem BioAssay AID330 (DTP/NCI, 2004).

The structures appear in SMILES notation. The list is a part of this screen's results and no random one: it gathers tests that were run many times, whatever their T/C, doses with no T/C, and many T/C values between a quarter and a half above the control. Further doses and runs are listed elsewhere. T/C gives the treated animals as a percentage of the vehicle group. Some doses have a count of surviving animals in place of a T/C: the source holds a T/C of zero for them, seemingly a mark for toxic or unscored doses. Some doses without a T/C left all or most animals alive at the check, yet need not have been tolerated: survival well below the control is almost never listed, so the zero probably covers shortened survival too. Counts of survivors are from the toxicity check (mostly the fifth day) where no day follows; animals may have died later. Schedules are NCI's codes, read here as Q, the interval in days (D) or hours (H), X, the number of doses. Some entries were tested several times; their values stand side by side, smallest first. For survival time, this PubChem deposit counts one and a half times the control or more as active, and values a quarter to a half above the control carry no call in these data; other NCI protocols may use other cut-offs. Some T/C values carry the count of animals alive at the toxicity check (mostly the fifth day); where none is given, no animal had died by that day.

The subject of the assay is P388 leukemia ip, CD2F1 mice, survival T/C. In words: NCI In Vivo Anticancer Drug Screen. Data for tumor model P388 Leukemia (intraperitoneal) in CD2F1 (CDF1) mice. The note with it: T/C endpoint: median survival time, higher T/C = longer survival.
[1] abbreviates: dose: 50.0 mg/kg/injection, schedule: Q01DX009 (ip), vehicle: saline with Tween-80.
The mark [2] stands for this setting: dose: 100.0 mg/kg/injection, schedule: Q01DX009 (ip), vehicle: saline with Tween-80.
The mark [3] stands for this setting: dose: 200.0 mg/kg/injection, schedule: Q01DX009 (ip), vehicle: saline with Tween-80.
Setting [4] is: dose: 50.0 mg/kg/injection, schedule: Q01DX005 (ip), vehicle: saline with Tween-80.
[5] abbreviates: dose: 100.0 mg/kg/injection, schedule: Q01DX005 (ip), vehicle: saline with Tween-80.
Where [6] appears, read: dose: 200.0 mg/kg/injection, schedule: Q01DX005 (ip), vehicle: saline with Tween-80.
Setting [7] is: dose: 100.0 mg/kg/injection, schedule: Q01DX009 (ip), vehicle: saline.
Where [8] appears, read: dose: 200.0 mg/kg/injection, schedule: Q01DX009 (ip), vehicle: saline.
Where [9] appears, read: dose: 120.0 mg/kg/injection, schedule: Q01DX005 (ip), vehicle: saline with Tween-80.
Where [10] appears, read: dose: 240.0 mg/kg/injection, schedule: Q01DX005 (ip), vehicle: saline with Tween-80.
[11] abbreviates: dose: 12.5 mg/kg/injection, schedule: Q01DX009 (ip), vehicle: water.
Setting [12] is: dose: 50.0 mg/kg/injection, schedule: Q01DX009 (ip), vehicle: saline.
[13] abbreviates: dose: 100.0 mg/kg/injection, schedule: Q01DX009 (ip), vehicle: Klucel (hydroxypropylcellulose) (HPC).
Setting [14] is: dose: 200.0 mg/kg/injection, schedule: Q01DX009 (ip), vehicle: Klucel (hydroxypropylcellulose) (HPC).

In the case of `CN(C)CCCNc1ccc(O)c2sc3ccccc3c(=O)c12`, the survivor count is 6 of 6 under setting [1], 4 of 6 under setting [2] and 0 of 6 under setting [3].
As for `COc1cc([C@@H]2c3cc4c(cc3[C@H](OC(=O)CCC(=O)O)[C@H]3COC(=O)[C@H]23)OCO4)cc(OC)c1OC`, for the setting “dose: 12.5 mg/kg/injection, schedule: Q01DX005 (ip), vehicle: saline with Tween-80”, the T/C is 129 % of control. Besides, the survivor count reads like this: (dose: 25.0 mg/kg/injection, schedule: Q01DX005 (ip), vehicle: saline with Tween-80) 4 of 6; under setting [4], 2 of 6 and 2 of 5; under setting [5], 0 of 5; under setting [6], 0 of 5.
Turning to `CC(O)CN(CCN(CC(C)O)CC(C)O)CC(C)O.[Cl-].[Co+2]` (stereo unspecified), the survivor count runs as follows: under setting [7], 3 of 6; under setting [8], 0 of 6.
Consider `O=C(c1ccc(Cl)cc1)c1no[n+]([O-])c1C(=O)c1ccc(Cl)cc1`, for which the T/C is, setting by setting: under setting [1], 142 % of control; under setting [2], 125 and 132 % of control. For the same molecule, the survivor count is, setting by setting: under setting [3], 4 of 6; (dose: 400.0 mg/kg/injection, schedule: Q01DX009 (ip), vehicle: saline with Tween-80) 4 of 6.
With `CC(=O)C(C(=O)Nc1cccc2ccccc12)C(C)=NCC(C)N=C(C)C(C(C)=O)C(=O)Nc1cccc2ccccc12.[Cu]` (stereo unspecified), the survivor count is given as 2 of 5 (dose: 50.0 mg/kg/injection, schedule: Q01DX005 (ip), vehicle: saline + Tween-80 + alcohol); 0 of 5 (dose: 100.0 mg/kg/injection, schedule: Q01DX005 (ip), vehicle: saline + Tween-80 + alcohol); 0 of 5 (dose: 200.0 mg/kg/injection, schedule: Q01DX005 (ip), vehicle: saline + Tween-80 + alcohol).
For `CCC(C)C(F)C(=O)O` (stereo unspecified), the survivor count under setting [6] is 3 of 6.
For `CCc1nc(N)nc(N)c1-c1ccc(NCCCCCCN)c([N+](=O)[O-])c1`, the T/C by setting is: (dose: 30.0 mg/kg/injection, schedule: Q01DX005 (ip), vehicle: saline with Tween-80) 131 % of control; (dose: 60.0 mg/kg/injection, schedule: Q01DX005 (ip), vehicle: saline with Tween-80) 127 and 139 % of control; under setting [9], 136 and 148 % of control. The survivor count under setting [10] is 0 of 6 and 1 of 6.
As to `CC(C)=CCC1=CC(=O)C(CC=C(C)C)=CC1=O`, the survivor count is on record as 4 of 6 under setting [1], 1 of 6 under setting [2] and 1 of 6 under setting [3].
With `O=C(O)c1c[nH]c2cc(-n3cccc3)ccc2c1=O`, the survivor count reads like this: under setting [9], 1 of 6; under setting [10], 0 of 6.
As for `COc1cc2c(c(OC)c1OC)-c1ccc(SC)c(=O)cc1C(NC(=O)COP(=O)(O)OCC(=O)NC1CCc3cc(OC)c(OC)c(OC)c3-c3ccc(SC)c(=O)cc31)CC2` (stereo unspecified), the T/C is 125 and 133 % of control (dose: 1.56 mg/kg/injection, schedule: Q01DX009 (ip), vehicle: water); 127, 129, 147 % of control (dose: 3.13 mg/kg/injection, schedule: Q01DX009 (ip), vehicle: water); 136 and 143 % of control (dose: 6.25 mg/kg/injection, schedule: Q01DX009 (ip), vehicle: water); 157 and 198 % of control under setting [11]. Moreover, the survivor count by setting is: under setting [11], 6 of 6; (dose: 25.0 mg/kg/injection, schedule: Q01DX009 (ip), vehicle: water) 2 of 6 and 5 of 6; (dose: 50.0 mg/kg/injection, schedule: Q01DX009 (ip), vehicle: water) 0 of 6 and 1 of 6; (dose: 100.0 mg/kg/injection, schedule: Q01DX009 (ip), vehicle: water) 0 of 6; (dose: 200.0 mg/kg/injection, schedule: Q01DX009 (ip), vehicle: water) 0 of 6.
For `Clc1ccc(OCC(Cn2ccnc2)c2ccc(Cl)cc2)cc1` (stereo unspecified), under setting [3], the survivor count was 3 of 6.
`CC(C)NS(=O)(=O)OCC(O)(CC(Cl)(Cl)Cl)c1ccccc1` (stereo unspecified): the T/C under setting [3] was 139 % of control.
`Cc1cn(CCCCCCOc2c3occc3cc3ccc(=O)oc23)c(=O)[nH]c1=O`: the survivor count (dose: 100.0 mg/kg/injection, schedule: Q01DX005 (ip), vehicle: Klucel (hydroxypropylcellulose) (HPC)) is given as 5 of 6.
As to `CC(=O)Nc1nc(C)c(CCCOc2ccc([N+](=O)[O-])cc2)c(=O)[nH]1`, under “dose: 240.0 mg/kg/injection, schedule: Q01DX005 (ip), vehicle: Klucel (hydroxypropylcellulose) (HPC)”, the survivor count was 6 of 6.
Turning to `CCCC(=O)Nc1nc2ccc([N+](=O)[O-])cc2s1`, the survivor count runs as follows: (dose: 12.5 mg/kg/injection, schedule: Q01DX009 (ip), vehicle: saline) 6 of 6; (dose: 25.0 mg/kg/injection, schedule: Q01DX009 (ip), vehicle: saline) 6 of 6; under setting [12], 6 of 6; under setting [7], 6 of 6.
As for `ClCC(Br)CBr` (stereo unspecified), the T/C runs as follows: (dose: 75.0 mg/kg/injection, schedule: Q01DX009 (ip), vehicle: saline sonified) 125 % of control; (dose: 75.0 mg/kg/injection, schedule: Q01DX009 (ip), vehicle: saline with Tween-80) 131 % of control; (dose: 112.0 mg/kg/injection, schedule: Q01DX009 (ip), vehicle: saline sonified) 140 % of control [5 of 6 alive].
In the case of `CCOC(=O)[n+]1ccc(-c2cc[n+](C(=O)OCC)cc2)cc1`, under setting [12], the survivor count was 6 of 6.
For `CCC(O)(c1ccccc1)C(O)c1ccccc1` (stereo unspecified), the T/C (dose: 200.0 mg/kg/injection, schedule: Q01DX009 (ip), vehicle: saline + alcohol) is 138 % of control [5 of 6 alive]. The survivor count (dose: 400.0 mg/kg/injection, schedule: Q01DX009 (ip), vehicle: saline + alcohol) is recorded as 3 of 6.
For `O=C1Nc2ccccc2C1NC(=S)Nc1ccc(Cl)cc1` (stereo unspecified), the survivor count (dose: 400.0 mg/kg/injection, schedule: Q01DX001 (ip), vehicle: saline with Tween-80) was 6 of 6.
On to `CCCCCCCCCCN1CCOCCOCCN(CCCCCCCCCC)CCOCCOCC1`, for which the survivor count runs as follows: under setting [4], 5 of 5; under setting [5], 1 of 5; under setting [6], 0 of 5.
On to `C[N+](C)=c1ccc2nc3c(ccc4ccccc43)oc-2c1`, for which the survivor count is, setting by setting: under setting [4], 0 of 5; under setting [5], 0 of 5; under setting [6], 0 of 5.
Regarding `c1ccc(-c2nc3cc4c(cc3n3cccc23)oc2ccccc24)cc1`, the survivor count under setting [6] was 4 of 5.
For `O=[N+]([O-])c1ccc(Nc2ccc[n+]3c([O-])csc23)nc1`, the survivor count reads like this: under setting [1], 6 of 6; under setting [8], 6 of 6.
Consider `S=C(Nc1ccc(Cl)cc1)Nc1ncccn1`, for which the survivor count by setting is: under setting [13], 6 of 6; under setting [14], 6 of 6.
Regarding `CSc1nc(C(N)=O)cc(=O)[nH]1`, the survivor count is given as 3 of 6 (dose: 50.0 mg/kg/injection, schedule: Q01DX009 (ip), vehicle: Klucel (hydroxypropylcellulose) (HPC)); 2 of 6 under setting [13]; 1 of 6 under setting [14].
Take `CCN(CC)CCNC(=O)c1cc(Cl)c(N)cc1OC`: the T/C (dose: 25.0 mg/kg/injection, schedule: Q01DX005 (ip), vehicle: water) is 126 % of control. In addition, the survivor count (dose: 200.0 mg/kg/injection, schedule: Q01DX005 (ip), vehicle: water) is on record as 0 of 6.
For the molecule `CCCCCCCCCCCCSCN(CC)CC`, the T/C under setting [8] was 126 [5 of 6 alive] and 128 % of control.
Take `NC(=O)c1ncn(C2OC(CO)C(O)C2O)n1` (stereo unspecified): the T/C (dose: 160.0 mg/kg/injection, schedule: Q01DX009 (ip), vehicle: saline) is 129 and 132 % of control. Also, the survivor count (dose: 320.0 mg/kg/injection, schedule: Q01DX009 (ip), vehicle: saline) is listed as 6 of 6.
Take `Cc1nc(=O)oc(NC(C)C)c1Cl`: the T/C under setting [8] was 127 % of control.
